Assay results: PMC10907362
No constants are given. Whether binding was seen depends on the method and setting. Binding seen in cells or lysates may run through a third protein. These calls come from enrichment with a bait or labelling near it, and not all partners need be listed. Sequences can lack the tags named with a protein.

T1: Flag-USP40 (in HLMVECs) (human) (UniProt Q9NVE5)
T1 sequence: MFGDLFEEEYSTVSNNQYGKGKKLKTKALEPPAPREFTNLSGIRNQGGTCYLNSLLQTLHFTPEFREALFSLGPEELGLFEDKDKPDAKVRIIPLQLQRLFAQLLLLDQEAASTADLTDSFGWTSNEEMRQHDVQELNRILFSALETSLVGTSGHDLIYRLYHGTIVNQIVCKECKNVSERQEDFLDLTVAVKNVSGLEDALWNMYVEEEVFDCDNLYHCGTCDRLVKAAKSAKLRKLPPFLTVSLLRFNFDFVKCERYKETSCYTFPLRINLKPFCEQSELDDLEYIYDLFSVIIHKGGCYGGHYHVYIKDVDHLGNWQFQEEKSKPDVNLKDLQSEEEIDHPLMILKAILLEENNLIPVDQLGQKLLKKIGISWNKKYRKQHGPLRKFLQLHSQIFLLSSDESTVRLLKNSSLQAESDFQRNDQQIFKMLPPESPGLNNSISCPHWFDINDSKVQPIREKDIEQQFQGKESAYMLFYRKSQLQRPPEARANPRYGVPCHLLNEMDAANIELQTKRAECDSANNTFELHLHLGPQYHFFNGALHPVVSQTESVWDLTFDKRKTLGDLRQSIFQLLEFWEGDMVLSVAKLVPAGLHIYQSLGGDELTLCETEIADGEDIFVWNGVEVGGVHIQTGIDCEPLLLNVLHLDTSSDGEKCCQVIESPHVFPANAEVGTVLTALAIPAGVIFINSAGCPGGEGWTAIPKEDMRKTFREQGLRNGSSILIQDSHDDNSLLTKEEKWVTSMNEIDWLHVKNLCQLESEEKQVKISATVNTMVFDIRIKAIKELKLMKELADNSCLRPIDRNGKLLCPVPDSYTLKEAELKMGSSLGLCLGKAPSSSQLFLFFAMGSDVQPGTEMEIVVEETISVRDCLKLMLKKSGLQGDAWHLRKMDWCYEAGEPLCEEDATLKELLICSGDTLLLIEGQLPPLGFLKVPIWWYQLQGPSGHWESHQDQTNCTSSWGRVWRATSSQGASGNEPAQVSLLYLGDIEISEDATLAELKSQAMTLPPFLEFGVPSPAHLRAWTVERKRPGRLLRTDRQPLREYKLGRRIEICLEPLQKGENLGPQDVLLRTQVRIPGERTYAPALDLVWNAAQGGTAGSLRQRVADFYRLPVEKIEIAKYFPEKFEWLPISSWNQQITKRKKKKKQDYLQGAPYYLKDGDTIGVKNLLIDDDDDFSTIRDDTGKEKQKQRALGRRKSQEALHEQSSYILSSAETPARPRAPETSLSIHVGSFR


Molecular target: T1, Flag-USP40 (in HLMVECs) (human)
Assay: affinity purification with mass spectrometry; Flag-USP40 immunoprecipitated from transfected HLMVECs with FLAG-M2 affinity gel; eluted under reducing conditions, SDS-PAGE, Coomassie, bands excised, in-gel trypsin digestion, LC-MS

Binder	binding
Non-POU domain-containing octamer-binding protein (protein, UniProt Q15233 1-471) MQSNKTFNLEKQNHTPRKHHQHHHQQQHHQQQQQQPPPPPIPANGQQASSQNEGLTIDLKNFRKPGEKTFTQRSRLFVGNLPPDITEEEMRKLFEKYGKAGEVFIHKDKGFGFIRLETRTLAEIAKVELDNMPLRGKQLRVRFACHSASLTVRNLPQYVSNELLEEAFSVFGQVERAVVIVDDRGRPSGKGIVEFSGKPAARKALDRCSEGSFLLTTFPRPVTVEPMDQLDDEEGLPEKLVIKNQQFHKEREQPPRFAQPGSFEYEYAMRWKALIEMEKQQQDQVDRNIKEAREKLEMEMEAARHEHQVMLMRQDLMRRQEELRRMEELHNQEVQKRKQLELRQEEERRRREEEMRRQQEEMMRRQQEGFKGTFPDAREQEIRMGQMAMGGAMGINNRGAMPPAPVPAGTPAPPGPATMMPDGTLGLTPPTTERFGQAATMEGIGAIGGTPPAFNRAAPGAEFAPNKRRRY	binds
Erythrocyte band 7 integral membrane protein (protein, UniProt P27105 1-288) MAEKRHTRDSEAQRLPDSFKDSPSKGLGPCGWILVAFSFLFTVITFPISIWMCIKIIKEYERAIIFRLGRILQGGAKGPGLFFILPCTDSFIKVDMRTISFDIPPQEILTKDSVTISVDGVVYYRVQNATLAVANITNADSATRLLAQTTLRNVLGTKNLSQILSDREEIAHNMQSTLDDATDAWGIKVERVEIKDVKLPVQLQRAMAAEAEASREARAKVIAAEGEMNASRALKEASMVITESPAALQLRYLQTLTTIAAEKNSTIVFPLPIDMLQGIIGAKHSHLG	binds
EH domain-containing protein 4 (protein, UniProt Q9H223 1-541) MFSWMGRQAGGRERAGGADAVQTVTGGLRSLYLRKVLPLEEAYRFHEFHSPALEDADFENKPMILLVGQYSTGKTTFIRYLLEQDFPGMRIGPEPTTDSFIAVMYGETEGSTPGNALVVDPKKPFRKLSRFGNAFLNRFMCSQLPNQVLKSISVIDSPGILSGEKQRISRGYDFCQVLQWFAERVDRIILLFDAHKLDISDEFSEAIKAFRGQDDKIRVVLNKADQVDTQQLMRVYGALMWSLGKVINTPEVLRVYIGSFWAQPLQNTDNRRLFEAEAQDLFRDIQSLPQKAAVRKLNDLIKRARLAKVHAYIISYLKKEMPSVFGKENKKRELISRLPEIYIQLQREYQISAGDFPEVKAMQEQLENYDFTKFHSLKPKLIEAVDNMLSNKISPLMNLISQEETSTPTQLVQGGAFDGTTEGPFNQGYGEGAKEGADEEEWVVAKDKPVYDELFYTLSPINGKISGVNAKKEMVTSKLPNSVLGKIWKLADCDCDGMLDEEEFALAKHLIKIKLDGYELPSSLPPHLVPPSHRKSLPKAD	binds
Unconventional myosin-Id (protein, UniProt O94832 1-1006) MAEQESLEFGKADFVLMDTVSMPEFMANLRLRFEKGRIYTFIGEVVVSVNPYKLLNIYGRDTIEQYKGRELYERPPHLFAIADAAYKAMKRRSKDTCIVISGESGAGKTEASKYIMQYIAAITNPSQRAEVERVKNMLLKSNCVLEAFGNAKTNRNDNSSRFGKYMDINFDFKGDPIGGHINNYLLEKSRVIVQQPGERSFHSFYQLLQGGSEQMLRSLHLQKSLSSYNYIHVGAQLKSSINDAAEFRVVADAMKVIGFKPEEIQTVYKILAAILHLGNLKFVVDGDTPLIENGKVVSIIAELLSTKTDMVEKALLYRTVATGRDIIDKQHTEQEASYGRDAFAKAIYERLFCWIVTRINDIIEVKNYDTTIHGKNTVIGVLDIYGFEIFDNNSFEQFCINYCNEKLQQLFIQLVLKQEQEEYQREGIPWKHIDYFNNQIIVDLVEQQHKGIIAILDDACMNVGKVTDEMFLEALNSKLGKHAHFSSRKLCASDKILEFDRDFRIRHYAGDVVYSVIGFIDKNKDTLFQDFKRLMYNSSNPVLKNMWPEGKLSITEVTKRPLTAATLFKNSMIALVDNLASKEPYYVRCIKPNDKKSPQIFDDERCRHQVEYLGLLENVRVRRAGFAFRQTYEKFLHRYKMISEFTWPNHDLPSDKEAVKKLIERCGFQDDVAYGKTKIFIRTPRTLFTLEELRAQMLIRIVLFLQKVWRGTLARMRYKRTKAALTIIRYYRRYKVKSYIHEVARRFHGVKTMRDYGKHVKWPSPPKVLRRFEEALQTIFNRWRASQLIKSIPASDLPQVRAKVAAVEMLKGQRADLGLQRAWEGNYLASKPDTPQTSGTFVPVANELKRKDKYMNVLFSCHVRKVNRFSKVEDRAIFVTDRHLYKMDPTKQYKVMKTIPLYNLTGLSVSNGKDQLVVFHTKDNKDLIVCLFSKQPTHESRIGELVGVLVNHFKSEKRHLQVNVTNPVQCSLHGKKCTVSVETRLNQPQPDFTKNRSGFILSVPGN	binds
Isoform 4 of Ankycorbin (protein, UniProt Q9P0K7-4 1-951) MKSLKAKFRKSDTNEWNKNDDRLLQAVENGDAEKVASLLGKKGASATKHDSEGKTAFHLAAAKGHVECLRVMITHGVDVTAQDTTGHSALHLAAKNSHHECIRKLLQSKCPAESVDSSGKTALHYAAAQGCLQAVQILCEHKSPINLKDLDGNIPLLLAVQNGHSEICHFLLDHGADVNSRNKSGRTALMLACEIGSSNAVEALIKKGADLNLVDSLGYNALHYSKLSENAGIQSLLLSKISQDADLKTPTKPKQLSDVSSPRSITSTPLSGKESVFFAEPPFKAEISSIRENKDRLSDSTTGADSLLDISSEADQQDLLSLLQAKVASLTLHNKELQDKLQAKSPKEAEADLSFDSYHSTQTDLGPSLGKPGETSPPDSKSSPSVLIHSLGKSTTDNDVRIQQLQEILQDLQKRLESSEAERKQLQVELQSRRAELVCLNNTEISENSSDLSQKLKETQSKYEEAMKEVLSVQKQMKLGLVSPESMDNYSHFHELRVTEEEINVLKQDLQNALEESERNKEKVRELEEKLVEREKGTVIKPPVEEYEEMKSSYCSVIENMNKEKAFLFEKYQEAQEEIMKLKDTLKSQMTQEASDEAEDMKEAMNRMIDELNKQVSELSQLYKEAQAELEDYRKRKSLEDVTAEYIHKAEHEKLMQLTNVSRAKAEDALSEMKSQYSKVLNELTQLKQLVDAQKENSVSITEHLQVITTLRTAAKEMEEKISNLKEHLASKEVEVAKLEKQLLEEKAAMTDAMVPRSSYEKLQSSLESEVSVLASKLKESVKEKEKVHSEVVQIRSEVSQVKREKENIQTLLKSKEQEVNELLQKFQQAQEELAEMKRYAESSSKLEEDKDKKINEMSKEVTKLKEALNSLSQLSYSTSSSKRQSQQLEALQQQVKQLQNQLAECKKQHQEVISVYRMHLLYAVQGQMDEDVQKVLKQILTMCKNQSQKK	binds
Isoform 2 of Synaptopodin (protein, UniProt Q8N3V7-2 1-903) MEGYSEEASLLRHLEKVASEEEEVPLVVYLKENAALLTANGLHLSQNREAQQSSPAPPPAEVHSPAADVNQNLASPSATLTTPTSNSSHNPPATDVNQNPPATVVPQSLPLSSIQQNSSEAQLPSNGTGPASKPSTLCADGQPQAPAEEVRCSTLLIDKVSTPATTTSTFSREATLIPSSRPPASDFMSSSLLIDIQPNTLVVSADQEMSGRAAATTPTKVYSEVHFTLAKPPSVVNRTARPFGIQAPGGTSQMERSPMLERRHFGEKAPAPQPPSLPDRSPRPQRHIMSRSPMVERRMMGQRSPASERRPLGNFTAPPTYTETLSTAPLASWVRSPPSYSVLYPSSDPKSSHLKGQAVPASKTGILEESMARRGSRKSMFTFVEKPKVTPNPDLLDLVQTADEKRRQRDQGEVGVEEEPFALGAEASNFQQEPAPRDRASPAAAEEVVPEWASCLKSPRIQAKPKPKPNQNLSEASGKGAELYARRQSRMEKYVIESSSHTPELARCPSPTMSLPSSWKYPTNAPGAFRVASRSPARTPPASLYHGYLPENGVLRPEPTKQPPYQLRPSLFVLSPIKEPAKVSPRAASPAKPSSLDLVPNLPKGALPPSPALPRPSRSSPGLYTSPGQDSLQPTAVSPPYGGDISPVSPSRAWSPRAKQAPRPSFSTRNAGIEAQDRRESLPTSPPWTPGASRPPSSLDGWVSPGPWEPGRGSSMSSPPPLPPPPPMSPSWSERSVSPLRPETEARPPSRQLQALLARNIINAARRKSASPRSAGAENPRPFSPPRAPPPPPPPPPPPPRMRSPQPARPGSAAVPGAAFAPIPRSPLPAGPSSCTSPRSPLPAPPRPFLYRRSPTDSDVSLDSEDSGAKSPGILGYNICPRGWNGSLRLKRGSLPAEASCTT	binds
Junction plakoglobin (protein, UniProt P14923 1-745) MEVMNLMEQPIKVTEWQQTYTYDSGIHSGANTCVPSVSSKGIMEEDEACGRQYTLKKTTTYTQGVPPSQGDLEYQMSTTARAKRVREAMCPGVSGEDSSLLLATQVEGQATNLQRLAEPSQLLKSAIVHLINYQDDAELATRALPELTKLLNDEDPVVVTKAAMIVNQLSKKEASRRALMGSPQLVAAVVRTMQNTSDLDTARCTTSILHNLSHHREGLLAIFKSGGIPALVRMLSSPVESVLFYAITTLHNLLLYQEGAKMAVRLADGLQKMVPLLNKNNPKFLAITTDCLQLLAYGNQESKLIILANGGPQALVQIMRNYSYEKLLWTTSRVLKVLSVCPSNKPAIVEAGGMQALGKHLTSNSPRLVQNCLWTLRNLSDVATKQEGLESVLKILVNQLSVDDVNVLTCATGTLSNLTCNNSKNKTLVTQNSGVEALIHAILRAGDKDDITEPAVCALRHLTSRHPEAEMAQNSVRLNYGIPAIVKLLNQPNQWPLVKATIGLIRNLALCPANHAPLQEAAVIPRLVQLLVKAHQDAQRHVAAGTQQPYTDGVRMEEIVEGCTGALHILARDPMNRMEIFRLNTIPLFVQLLYSSVENIQRVAAGVLCELAQDKEAADAIDAEGASAPLMELLHSRNEGTATYAAAVLFRISEDKNPDYRKRVSVELTNSLFKHDPAAWEAAQSMIPINEPYGDDMDATYRPMYSSDVPLDPLEMHMDMDGDYPIDTYSDGLRPPYPTADHMLA	binds
